Laboratory results from paper PMC10008303.

Chains of the proteins cited; added tags and fusions are not shown. Lines headed by an entry give the natural chain unless they say otherwise; changes in a name come on top.
UniProt B6D1Q5: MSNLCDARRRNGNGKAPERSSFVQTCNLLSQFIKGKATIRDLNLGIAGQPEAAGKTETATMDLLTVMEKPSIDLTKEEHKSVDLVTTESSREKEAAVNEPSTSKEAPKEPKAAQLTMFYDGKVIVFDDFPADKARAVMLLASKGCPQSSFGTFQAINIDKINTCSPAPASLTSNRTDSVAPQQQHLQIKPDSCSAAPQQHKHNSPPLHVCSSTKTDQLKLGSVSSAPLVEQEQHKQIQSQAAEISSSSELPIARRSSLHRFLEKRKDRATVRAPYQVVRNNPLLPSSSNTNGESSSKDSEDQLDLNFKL

Assays:
[1] = target: Fls2/Fls3 interacting RLCK 1 (Fir1) fused to the C-terminal fragment of luciferase (tomato (Solanum lycopersicum)); experiment: split reporter; split-luciferase complementation; C-LUC-Fir1 co-expressed with N-LUC fusions via A. tumefaciens in N. benthamiana leaves; relative luminescence of leaf discs at 48 h after agro-infiltration
[2] = target: Fir1 fused to the glutathione-S-transferase (GST) protein (tomato (Solanum lycopersicum)); experiment: pull-down; GST-Fir1 bound to glutathione resin, incubated overnight with lysates of E. coli cells expressing His-JAZ3 or His-JAZ7, washed; eluted proteins blotted with anti-His antibodies; only the target purified

binding [1] | binding [2] | Molecule
binds |  | JASMONATE-ZIM-DOMAIN PROTEIN 3 (JAZ3) fused to the N-terminal fragment of luciferase (from UniProt B6D1Q5)
 | no binding | His-tagged JAZ7 (protein, UniProt Q9M723 1-228) MDSRMEIDFMDLNSKPKLSEMEKQHKKVSGMKWPFSLADLATHHEHTFFQNYKSTPIVSINSKNSSLNNYKSTIDPQYFRGTFPLLAKTSTYDSRKNYDNLSPNESTLTIFYMGEVHIFPGISPEKAELIIDLVSKSTTLHMDEILEKVMNKEKYEENKSDPSNASTNYAKGALAMARRATLARFLEKRKHRLIKARPYLYGENLSKFPFDIQQQEEETASSSVHWEN

Results are given in words; binding and its absence hold for the method and conditions named. Binding seen in cells or lysates may run through a third protein. For some assays here: Binding can be weak; no strength is given. For some assays here: Where a sequence is shown, tags or fusion partners need not be part of it.
